# Test results taken from PubChem BioAssay AID504444 (National Center for Advancing Translational Sciences (NCATS), 2011).
# Out of some 360,000 compounds screened, about 7,500 (2.1%) were called active. Inconclusive results, whose numbers are uncertain, are shown with a selection of clear calls. Calls follow the shape of the dose curve; as a rule, active = well fitted inhibition curve with a large enough effect; inconclusive = small, poorly fitted or top-dose-only effect, or effect the other way; inactive = flat fitted curve, though single readings scatter. Potencies of inconclusive entries are doubtful fits and often do not repeat.
# Test: Nrf2 qHTS screen for inhibitors; also: nearly all actives have a fitted effect of over 60% in size
# Details: A549 ARE-Fluc reporter, luciferase luminescence, 18-24 h; activity change, negative = inhibition: at 46 µM (top of the series)
# Method in brief: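 Quantitative HTS in A549 cells stably bearing an antioxidant response element-firefly luciferase construct. Inhibition of Nrf2-driven transcription was scored by luminescence after 18-24 h of compound exposure at 37 °C.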
# % is scaled to controls: 0 for no effect and ±100 for the full control effect; potency is read from the fitted curve at half-maximal effect.
SMILES,Potency,"activity change, negative = inhibition"
O=C(NCCCn1ccnc1)c1cc(C(=O)C2CCCCC2)c[nH]1,"inconclusive: 20.6 µM [falling, partial curve, poor fit]",
CNC(=O)c1cc(C(=O)c2ccc(C(F)(F)F)cc2)c[nH]1,"inconclusive: 7.31 µM [activator, partial curve, poor fit]",
COc1ccc2c(c1)c1c(n2C(C)=O)C(OC(C)=O)=NCC1,"inconclusive: 14.6 µM [falling, partial curve, poor fit]",
O=C(CN1C(=O)COc2ccccc21)N1CCCC1,,inactive: 10.6%
CC(C)c1ccc(NC(=O)c2snc3ccc(Cl)cc23)cc1,"inconclusive: 1.84 µM [activator, full curve]",
O=c1[nH]c2ccccc2nc1-c1ccc(Cl)cc1,"inconclusive: 2.31 µM [activator, full curve, poor fit]",
Cc1cc(C)cc(OCC(=O)O/N=C(\N)c2cccnc2)c1,"inconclusive: 4.61 µM [activator, partial curve, poor fit]",
O=Cc1ccc(OCc2ccc3ccccc3c2)cc1,"inconclusive: 23.1 µM [activator, partial curve, poor fit]",
c1csc(-c2nc3ccccn3c2NC2CCCCC2)c1,"inconclusive: 13 µM [falling, partial curve]",
COc1ccc(-c2cc3ccc(OCC(C)=O)cc3oc2=O)cc1OC,"inconclusive: 32.6 µM [falling, single point]",
COc1ccccc1NC(=O)CSc1nnc2c3ccccc3n(C(C)C)c2n1,active: 18.4 µM,
O=C(O)c1ccc(NC(=O)c2cccc(N3C(=O)C4C5CCC(C5)C4C3=O)c2)cc1 (stereo unspecified),,inactive: -5.48%
COc1ccc(CCNC(=O)CCc2c(C)nc3cc(-c4ccccc4OC)nn3c2C)c(OC)c1,active: 23.1 µM,
COc1cc(CNCCc2ccc(S(N)(=O)=O)cc2)ccc1OCc1ccc(Cl)cc1,active: 23.1 µM,
O=C(CNc1ccc2ccccc2c1)N/N=C/c1ccncc1,"inconclusive: 29.1 µM [falling, single point]",
Cc1nc(-c2cccc(NC(=O)c3ccc(-n4cccn4)cc3)c2)cs1,active: 14.6 µM,
CC12CCC(C/C1=N\N=C1\NC(=O)/C(=C\c3ccc(Cl)cc3)S1)C2(C)C (stereo unspecified),"inconclusive: 32.6 µM [falling, single point]",
Cc1c(Cl)cccc1NC(=S)N1CCCN(Cc2ccc(F)cc2)C1,"inconclusive: 18.4 µM [activator, single point]",
Cc1ccc(S(=O)(=O)N/N=C\c2ccccc2OCc2ccccc2)cc1,"inconclusive: 4.61 µM [falling, partial curve, poor fit]",
CN(C)c1cc(-c2cccc(C(F)(F)F)c2)oc(=O)c1Cl,"inconclusive: 5.17 µM [falling, full curve]",
O=C(O)CC(C(=O)O)N1C(=O)/C(=C/C=C/c2ccco2)SC1=S (stereo unspecified),"inconclusive: 11.6 µM [falling, partial curve, poor fit]",
Cc1noc2ncnc(N3CCCCC3)c12,,inactive: -8.33%

# Single records, from the list above:
# Cc1noc2ncnc(N3CCCCC3)c12 as listed: activity change, negative = inhibition: inactive: -8.33%
# COc1ccc(-c2cc3ccc(OCC(C)=O)cc3oc2=O)cc1OC as listed: Potency: inconclusive: 32.6 µM [falling, single point]

# Looked up above.
# activity change, negative = inhibition, `Cc1noc2ncnc(N3CCCCC3)c12` is entered as inactive: -8.33%
# activity change, negative = inhibition, `O=C(CN1C(=O)COc2ccccc21)N1CCCC1` is entered as inactive: 10.6%

# (cont.)

SMILES,Potency,"activity change, negative = inhibition"
CC(C)CC(C(=O)NC1CCCC1)N(Cc1cccs1)C(=O)c1snc(C(N)=O)c1N (stereo unspecified),"inconclusive: 4.61 µM [activator, full curve]",
CCC(CC)C(=O)Nc1ccc(-c2cn3cccnc3n2)cc1,"inconclusive: 7.31 µM [falling, full curve, poor fit]",
Oc1ccc(C[C@H]2CNC(=S)N2CC2CCCN2C[C@H](Cc2ccc(O)cc2)N2C[C@H](Cc3ccccc3)N(CCc3ccccc3)C2=S)cc1 (stereo partly specified),active: 20.6 µM,
CNc1nnc(-c2ccc(N(C)C)cc2)s1,"inconclusive: 1.16 µM [activator, partial curve]",
COc1ccc(/C(C)=N/OCC(=O)N=Nc2c(O)[nH]c3ccccc23)cc1,"inconclusive: 29.1 µM [falling, single point]",
Cc1nnc(CN(C)C(=O)c2cc(COc3ccc(F)cc3Cl)on2)o1,"inconclusive: 10.3 µM [activator, partial curve]",
Cc1ccc(CNC(=O)CNC(=S)N(Cc2ccccc2)Cc2cccnc2)cc1,,inactive: 4.13%
Cc1ccc2[nH]c3c(c2c1)CN(C(=O)CN1CCCc2ccccc21)CC3,"inconclusive: 13 µM [falling, partial curve, poor fit]",
COC(=O)c1c(N)sc(C(=O)NCCc2ccccc2)c1C,"inconclusive: 0.146 µM [activator, partial curve, poor fit]",
Cc1cccc(-n2c(SCC(N)=O)nc3c(c2=O)C2(CCCCC2)Cc2ccccc2-3)c1,active: 20.6 µM,
O=C(CCC1CCN(Cc2ccccc2Cl)CC1)NC1CC1,"inconclusive: 25.9 µM [activator, partial curve]",
COc1ccc(OCC(=O)Nc2ccc3c(c2)C(=O)NC3=O)cc1,"inconclusive: 10.3 µM [falling, partial curve, poor fit]",
O=C(NNc1ccc(Cl)nn1)c1ccc(Cl)cc1,,inactive: -0.758%
Cc1ccc(S(=O)(=O)Oc2ccc(/C=N/NC(=O)c3nn(C)cc3Cl)cc2)cc1,active: 18.4 µM,
COn1c(-c2ccccc2)c(C=O)c2ccccc21,"inconclusive: 32.6 µM [activator, partial curve, poor fit]",
Cc1ccc(C(=O)N2CCCCC2C(=O)O)cc1S(=O)(=O)N1CCCCC1 (stereo unspecified),"inconclusive: 29.1 µM [activator, single point]",
O=[N+]([O-])c1ccccc1/C=N/OCc1ccccc1,"inconclusive: 13 µM [activator, partial curve]",
COC(=O)c1ccccc1NC(=O)CNc1cc(Cl)ccc1N1CCOCC1,"inconclusive: 23.1 µM [falling, single point]",
O=[N+]([O-])c1ccc(-c2nn(-c3ccccc3)cc2/C=N/n2c(-c3cccs3)n[nH]c2=S)cc1,"inconclusive: 29.1 µM [falling, single point]",
COC(=O)c1cc(NS(=O)(=O)c2ccc(C(C)C)cc2)ccc1N1CCOCC1,"inconclusive: 16.4 µM [falling, partial curve, poor fit]",
COc1ccc(Br)cc1CNC(=O)C1CCN(C(=O)N(C)C)CC1,"inconclusive: 20.6 µM [falling, partial curve, poor fit]",
Cc1ccc(C23CC4CC(CC(CC(=O)N5CCOCC5)(C4)C2)C3)cc1,"inconclusive: 11.6 µM [falling, partial curve, poor fit]",

SMILES,Potency,"activity change, negative = inhibition"
Cc1ccccc1OCc1nc(-c2ccc(-n3cccc3)cc2)no1,"inconclusive: 18.4 µM [falling, single point]",
COc1cc2c3nnc(-c4ccc(F)cc4)c-3cn(Cc3ccccc3F)c2cc1OC,,inactive: -4.16%
Cc1[nH]n(-c2ccccc2)c(=O)c1N=Nc1ccccc1O,"inconclusive: 29.1 µM [falling, single point]",
COC(=O)c1sc(N2C(=O)C(O)=C(C(=O)c3ccc(C)o3)C2c2cccs2)nc1C (stereo unspecified),active: 20.6 µM,
O=C(O)c1cn(-c2ccc(N3CCCC3)c(F)c2)c2c(F)c(F)c(F)cc2c1=O,"inconclusive: 32.6 µM [activator, single point]",
CC(C)=C1SC(N2CCN(c3cccc(C(F)(F)F)c3)CC2)=NC1=O,"inconclusive: 25.9 µM [falling, partial curve, poor fit]",
COCCNC(=O)c1cc2sc3ccccc3c2s1,"inconclusive: 18.4 µM [activator, partial curve]",
Cc1ccccc1CN1C(=O)[C@H]2Cc3c([nH]c4ccccc34)C(C)(C)N2C1=O,"inconclusive: 23.1 µM [falling, partial curve, poor fit]",
CC(=O)c1c(C)[nH]c(C(=O)OCc2nnc(-c3ccc([N+](=O)[O-])cc3)o2)c1C,"inconclusive: 16.4 µM [falling, single point]",
CCCCn1c(N)c(N(CCOC)C(=O)c2cc(C)oc2C)c(=O)[nH]c1=O,,inactive: -0.406%
COc1ccc(C(=O)C2CCN(CC(=O)Nc3ccc(OC)cc3OC)CC2)cc1,"inconclusive: 29.1 µM [falling, single point]",
O=C(NC(=S)N1CCN(c2ccc([N+](=O)[O-])cc2)CC1)c1ccccc1F,"inconclusive: 16.4 µM [falling, partial curve, poor fit]",
O=C1/C(=C/c2ccccc2F)SC(=S)N1CCC(=O)N1CCCCC1CCO (stereo unspecified),"inconclusive: 20.6 µM [activator, single point]",
CCOC(=O)C1=C(C)C(c2ccc(OC)cc2)NC(=S)N1 (stereo unspecified),,inactive: -11.1%
CC1CC(C)CN(S(=O)(=O)c2ccc(C(=O)Nc3sccc3C(N)=O)cc2)C1 (stereo unspecified),"inconclusive: 18.4 µM [falling, single point]",
COc1ccc(-c2ccc(C(C)=O)cc2)cc1[C@H]1[C@@H]2C=CCC[C@@]2(C)C(=O)N1Cc1ccccc1,active: 20.6 µM,
COc1ccc(S(=O)(=O)N2CCN(C/C=C/c3ccccc3)CC2)cc1F,,inactive: -8.19%
O=C(Nc1ccc(F)c(F)c1)c1ccc(-n2cncn2)c([N+](=O)[O-])c1,active: 10.3 µM,
CCC(C)(C)NC(=O)C(c1ccc(OC)cc1)N(C(=O)CCC(=O)Nc1cc(C)on1)c1cccc(F)c1 (stereo unspecified),active: 5.8 µM,
Cc1cc(Cl)ccc1OCC(=O)N1CCCCC1,"inconclusive: 5.8 µM [activator, partial curve]",
Brc1cccc(Nc2nc(-c3cccnc3)cs2)c1,"inconclusive: 5.17 µM [activator, single point]",
O=C(CCc1ccccc1)NC1(Cc2ccccc2)CCN(CCCc2ccccc2)C1=O (stereo unspecified),"inconclusive: 20.6 µM [falling, single point]",
